Test results from paper doi:10.1101/182204.
No constants are given. Whether binding was seen depends on the method and setting. Some results given as binding are weak or reduced against the parent protein; the word gives no strength. Tags and fused reporters may be left off the sequences shown. Values belong to the binder of their own block, whether it stands above or below them.

Target: T1, MBP-LATS2 (UniProt Q9NRM7)
T1 sequence: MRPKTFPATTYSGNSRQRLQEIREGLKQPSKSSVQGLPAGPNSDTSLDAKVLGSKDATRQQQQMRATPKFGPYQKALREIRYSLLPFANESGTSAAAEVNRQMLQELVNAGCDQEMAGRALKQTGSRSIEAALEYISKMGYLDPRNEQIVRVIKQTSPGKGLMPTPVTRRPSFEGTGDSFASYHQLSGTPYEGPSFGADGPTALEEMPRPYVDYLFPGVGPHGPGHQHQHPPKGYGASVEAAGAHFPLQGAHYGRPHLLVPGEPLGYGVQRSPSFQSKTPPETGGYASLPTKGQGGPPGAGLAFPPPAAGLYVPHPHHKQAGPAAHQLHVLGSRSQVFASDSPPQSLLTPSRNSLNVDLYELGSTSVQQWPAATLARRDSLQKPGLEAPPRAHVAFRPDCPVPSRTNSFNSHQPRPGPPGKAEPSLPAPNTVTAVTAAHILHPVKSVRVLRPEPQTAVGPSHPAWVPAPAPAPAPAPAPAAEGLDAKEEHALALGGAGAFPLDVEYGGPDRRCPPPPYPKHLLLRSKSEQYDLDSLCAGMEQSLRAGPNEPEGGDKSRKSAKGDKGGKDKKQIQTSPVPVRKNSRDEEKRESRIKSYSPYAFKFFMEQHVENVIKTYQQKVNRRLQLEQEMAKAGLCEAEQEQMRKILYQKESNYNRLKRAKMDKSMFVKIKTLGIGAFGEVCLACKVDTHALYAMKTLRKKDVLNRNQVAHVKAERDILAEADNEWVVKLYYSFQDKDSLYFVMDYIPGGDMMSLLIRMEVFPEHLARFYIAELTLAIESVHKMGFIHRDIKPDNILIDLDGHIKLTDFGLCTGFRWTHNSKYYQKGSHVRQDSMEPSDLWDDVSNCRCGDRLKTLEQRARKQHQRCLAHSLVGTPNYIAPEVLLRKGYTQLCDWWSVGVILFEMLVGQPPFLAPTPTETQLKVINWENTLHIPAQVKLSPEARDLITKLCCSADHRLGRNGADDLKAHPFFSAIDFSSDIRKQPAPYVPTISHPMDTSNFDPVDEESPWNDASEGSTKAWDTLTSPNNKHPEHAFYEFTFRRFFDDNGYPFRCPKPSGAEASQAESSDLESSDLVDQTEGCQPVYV
Experiment: pull-down

binding: binds
B1: MOB1A-6xHis (protein, UniProt Q9H8S9 1-216)
chain: MSFLFSSRSSKTFKPKKNIPEGSHQYELLKHAEATLGSGNLRQAVMLPEGEDLNEWIAVNTVDFFNQINMLYGTITEFCTEASCPVMSAGPRYEYHWADGTNIKKPIKCSAPKYIDYLMTWVQDQLDDETLFPSKIGVPFPKNFMSVAKTILKRLFRVYAHIYHQHFDSVMQLQEEAHLNTSFKHFIFFVQEFNLIDRRELAPLQELIEKLGSKDR

binding: binds
B2: GST-TRIP6 (protein, UniProt Q15654 1-476)
chain: MSGPTWLPPKQPEPARAPQGRAIPRGTPGPPPAHGAALQPHPRVNFCPLPSEQCYQAPGGPEDRGPAWVGSHGVLQHTQGLPADRGGLRPGSLDAEIDLLSSTLAELNGGRGHASRRPDRQAYEPPPPPAYRTGSLKPNPASPLPASPYGGPTPASYTTASTPAGPAFPVQVKVAQPVRGCGPPRRGASQASGPLPGPHFPLPGRGEVWGPGYRSQREPGPGAKEEAAGVSGPAGRGRGGEHGPQVPLSQPPEDELDRLTKKLVHDMNHPPSGEYFGQCGGCGEDVVGDGAGVVALDRVFHVGCFVCSTCRAQLRGQHFYAVERRAYCEGCYVATLEKCATCSQPILDRILRAMGKAYHPGCFTCVVCHRGLDGIPFTVDATSQIHCIEDFHRKFAPRCSVCGGAIMPEPGQEETVRIVALDRSFHIGCYKCEECGLLLSSEGECQGCYPLDGHILCKACSAWRIQELSATVTTDC
